Screening data, single-dose tests

Protein sequences, listed by entry. Tags and fused reporters are not part of them. Residues count along the entry.
UniProt I6X8D2, whole entry: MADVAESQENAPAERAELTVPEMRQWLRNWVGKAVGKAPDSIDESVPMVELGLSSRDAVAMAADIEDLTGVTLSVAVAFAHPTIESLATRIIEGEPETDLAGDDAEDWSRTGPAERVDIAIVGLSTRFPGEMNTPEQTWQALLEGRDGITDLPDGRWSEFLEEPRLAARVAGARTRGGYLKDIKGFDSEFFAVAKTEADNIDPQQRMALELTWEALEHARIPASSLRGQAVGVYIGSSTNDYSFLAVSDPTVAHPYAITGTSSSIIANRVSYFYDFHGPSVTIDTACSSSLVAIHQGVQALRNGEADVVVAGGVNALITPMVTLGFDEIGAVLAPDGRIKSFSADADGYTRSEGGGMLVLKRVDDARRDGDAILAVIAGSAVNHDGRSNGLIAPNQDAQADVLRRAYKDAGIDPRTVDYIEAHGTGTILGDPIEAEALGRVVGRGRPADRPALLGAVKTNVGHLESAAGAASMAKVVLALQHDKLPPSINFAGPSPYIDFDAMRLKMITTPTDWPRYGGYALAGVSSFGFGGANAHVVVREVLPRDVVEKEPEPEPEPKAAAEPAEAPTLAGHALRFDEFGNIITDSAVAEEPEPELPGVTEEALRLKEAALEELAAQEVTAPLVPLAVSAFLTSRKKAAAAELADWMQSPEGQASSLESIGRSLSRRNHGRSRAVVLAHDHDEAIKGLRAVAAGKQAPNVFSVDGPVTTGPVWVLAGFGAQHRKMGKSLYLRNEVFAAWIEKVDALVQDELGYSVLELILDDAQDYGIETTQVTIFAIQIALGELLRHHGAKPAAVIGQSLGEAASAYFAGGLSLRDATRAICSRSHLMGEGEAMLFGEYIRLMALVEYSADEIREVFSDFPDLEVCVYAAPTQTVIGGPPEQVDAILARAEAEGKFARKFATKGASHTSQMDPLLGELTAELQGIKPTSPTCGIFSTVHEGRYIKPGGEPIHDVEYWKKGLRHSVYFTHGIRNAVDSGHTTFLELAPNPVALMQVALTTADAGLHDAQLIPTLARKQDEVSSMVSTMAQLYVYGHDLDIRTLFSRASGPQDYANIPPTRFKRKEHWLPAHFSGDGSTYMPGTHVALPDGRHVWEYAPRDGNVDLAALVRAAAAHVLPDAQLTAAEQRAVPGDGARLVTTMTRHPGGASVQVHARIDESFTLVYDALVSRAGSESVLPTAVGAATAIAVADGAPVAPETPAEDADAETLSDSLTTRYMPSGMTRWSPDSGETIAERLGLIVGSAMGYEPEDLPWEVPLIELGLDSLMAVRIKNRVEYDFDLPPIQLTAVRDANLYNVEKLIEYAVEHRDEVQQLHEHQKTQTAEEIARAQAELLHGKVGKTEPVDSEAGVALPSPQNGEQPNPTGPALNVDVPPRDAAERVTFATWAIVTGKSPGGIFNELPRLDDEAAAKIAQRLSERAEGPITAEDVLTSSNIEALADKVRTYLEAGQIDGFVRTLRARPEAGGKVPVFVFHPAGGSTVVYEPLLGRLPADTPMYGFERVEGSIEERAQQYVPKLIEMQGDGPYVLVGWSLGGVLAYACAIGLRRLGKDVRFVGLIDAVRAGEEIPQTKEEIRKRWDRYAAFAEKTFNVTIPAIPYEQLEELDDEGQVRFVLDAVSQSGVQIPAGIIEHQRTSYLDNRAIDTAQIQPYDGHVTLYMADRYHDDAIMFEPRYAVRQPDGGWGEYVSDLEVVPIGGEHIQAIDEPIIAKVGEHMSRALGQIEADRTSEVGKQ
UniProt A4I591, 1-473: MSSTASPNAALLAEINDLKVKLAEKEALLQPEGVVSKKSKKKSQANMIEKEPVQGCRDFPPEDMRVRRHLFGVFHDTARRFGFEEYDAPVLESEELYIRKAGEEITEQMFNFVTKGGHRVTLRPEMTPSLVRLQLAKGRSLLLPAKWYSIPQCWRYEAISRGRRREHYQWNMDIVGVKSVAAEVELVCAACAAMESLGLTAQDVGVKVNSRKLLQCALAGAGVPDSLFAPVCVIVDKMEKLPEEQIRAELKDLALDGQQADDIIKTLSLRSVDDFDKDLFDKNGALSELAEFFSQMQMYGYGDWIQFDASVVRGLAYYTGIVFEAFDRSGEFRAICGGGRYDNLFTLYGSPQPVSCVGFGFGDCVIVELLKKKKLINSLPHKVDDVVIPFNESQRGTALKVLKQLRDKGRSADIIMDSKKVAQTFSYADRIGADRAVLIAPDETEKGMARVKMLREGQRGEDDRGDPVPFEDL

Pks13 thioesterase: 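Enzyme assay of the thioesterase domain of polyketide synthase 13; the read-out is not stated. Target: Polyketide synthase Pks13, Mycobacterium tuberculosis (UniProt I6X8D2). Compounds at 30 µM. Higher reads as stronger inhibition (inferred from which compounds were picked for retests). Of about 67,000 compounds tested this way, about 300 (0.46%) reached 50% or more in at least one test.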
LiHisRS: 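Enzyme assay of histidyl-tRNA synthetase; the read-out is not stated. Target: Histidine-tRNA ligase, Leishmania infantum (UniProt A4I591). Tested at 30 µM. Higher reads as stronger inhibition (inferred: compounds with an IC50 in retests scored well above the rest). The assay is labelled LdHisRS but filed under L. infantum. Size under these conditions: about 69,000 compounds, about 410 of them at 50% or above in at least one test.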

Values are the deposited “Percent Effect”, in %.
How 0% and 100% were set is not recorded. Most values in the screen are low, and negative values occur.
This is an unselected part of the compounds tested.
A dash means the value is not listed here; it may have been measured.

structure,Pks13 thioesterase,LiHisRS
Cn1c(CN2CCCCC2)nnc1C1CCCN(C(=O)CCC(N)=O)C1 (stereo unspecified),8.039%,16.67%
CCN(Cc1cccc2c1OCO2)C(=O)Nc1ccccn1,-18.38%,15.38%
O=C(NC[C@H]1OC[C@@H](NC2CCC(F)(F)CC2)[C@@H]1O)N1CCOCC1,-21.2%,20.27%
Cc1nn(CCO)cc1CN1CCC(N2CCC(O)CC2)CC1,2.319%,9.211%
CN1CC(c2n[nH]c(=O)n2-c2cccc(Cl)c2)CC1=O (stereo unspecified),7.141%,9.804%
COc1cccc(-n2nnc(C(=O)N3CCNC(=O)C3)c2C)c1,0.9227%,8.511%
O=C(NCCCC(=O)N1CCN(CC2CC2)c2ccccc21)C1CC1,-15.58%,11.76%
COC(=O)CC(NC(=O)c1ccc(OC)cc1OC)c1cccs1 (stereo unspecified),-,-0.8696%
Cc1nnc(N2C[C@H](OCc3cccnc3)[C@H]3OCCC[C@H]32)s1,2.759%,24.32%
O=C(Cc1ccc2c(c1)OCO2)N1CCN(c2ccncc2)CC1,-11.96%,16%
CCN1CCN(C)C2(CCN(C(=O)CC(F)(F)F)CC2)C1=O,1.254%,3.846%
COC(=O)CC(NC(=O)c1cccc(N2CCCC2=O)c1)c1cccs1 (stereo unspecified),1.958%,26.32%
CN(Cc1ccccc1CNC(=O)C1CNC(=O)N1)C1CCCCC1 (stereo unspecified),-27.49%,7.254%
CCOC(=O)CN1CCC(NC(=O)OC(C)(C)C)CC1,-11.44%,-11.43%
CC(C)c1cc(CNC(=O)Nc2cc(F)cc(N3CCCC3)c2)on1,33.25%,1.6%
CN(C)CCCNC(=O)c1ccnc(OCc2ccccc2)c1,-4.838%,0.8547%
COc1c(CNC2CCN(c3ncccn3)CC2)c(C)nn1C,-14.1%,9.821%
O=C(N[C@@H]1CN(Cc2ccoc2)[C@@H]2CCCO[C@@H]21)C1CC1,-8.193%,6.422%
COCCN(C(=O)c1c[nH]c2ncccc12)C1CCCC1,-8.562%,21.13%
CN(C)S(=O)(=O)NCc1cccnc1Oc1ccc(F)cc1F,-29.43%,2.151%
CCc1noc(C2CC(=O)N(CCN(C)C)C2)n1 (stereo unspecified),-21.81%,12.99%
N#Cc1ccnc(SCC2CN=C(N3CCOCC3)S2)c1 (stereo unspecified),-5.734%,23.66%
CCOC(=O)c1sc2ccsc2c1CNC(=O)C(C)OC (stereo unspecified),-4.015%,1.835%
CN1CCCCC1c1ccc(-n2ccnc2)nc1 (stereo unspecified),2.663%,12.68%
CCc1nccn1C1CCCN(C(=O)Cc2ccc(OC)c(F)c2)C1 (stereo unspecified),-20.88%,20.27%
C=C(C)COc1ccccc1CN1CCC(NC(C)=O)CC1,-35.91%,-5.594%
COc1cccc(CNC(=O)Cn2ccc3c(C)nn(C)c3c2=O)c1,-10.38%,16.3%
CC(=O)N1CCC(c2ncc(C(=O)Nc3ccc(F)cc3)c(C)n2)CC1,-8.528%,-2.797%
CN(C)C(C(=O)Nc1nccs1)c1c(F)cccc1Cl (stereo unspecified),-56.05%,12.82%
O=C(CN1CCCCC1)NCc1cccnc1-n1cnc2ccccc21,-9.166%,0%
CC(C)(C)n1cc(C(=O)N2CCN(Cc3ccncc3)CC2)cn1,3.46%,21.43%
Cc1nc2c(c(NC3CC3)n1)CCN(C(=O)CCO)CC2,-25.94%,23.53%
CC[C@H]1CN2CC[C@H]1C[C@@H]2CNCc1ccc(N(C)C)cc1,-7.021%,22.22%
CC[C@H](C)Cn1nc(C2CCNCC2)n(Cc2ccccc2)c1=O,13.99%,19.44%
CCn1ccnc1CN1CCCN(C(=O)c2cc(Cl)c[nH]2)CC1,-19.71%,-2.128%
COC[C@@]12CCC[C@@H]1CN(C(=O)COC1CCCC1)C2,10.28%,0%
Cc1cc(C(=O)N2CCCC2c2nnc3n2CCCCC3)on1 (stereo unspecified),-14.54%,17.7%
O=c1cc(Cn2ccnc2)nc2n1CCCN(Cc1cccs1)C2,5.09%,15.38%
O=C(CC1CC1)N1CCN(Cc2cccnc2)c2ncccc2C1,-11.81%,5.556%
O=C(Cc1cccc(O)c1)NCCNc1nccc(C(F)(F)F)n1,-34.24%,18.33%
CC1=Nc2c(c(=O)[nH]n2C2CCOCC2)C(c2cccc(O)c2)S1 (stereo unspecified),-9.729%,31.52%
c1cnnc(N2CCCC2CNCc2cscn2)c1 (stereo unspecified),-,14.29%
CS(=O)(=O)NC1CCN(C(=O)NCc2ccccn2)CC1,-7.596%,9.174%
COCCO[C@H]1CCN(c2cc(OC)ncn2)[C@H]1Cc1cccnc1,-19.03%,3.509%
CC(=O)N1Cc2ccccc2OC2(CCN(C(=O)C3CCOC3)CC2)C1 (stereo unspecified),3.032%,2.837%
Cc1noc([C@H]2C[C@@H]3CCN(C(=O)c4cccn4C)C[C@H]3O2)n1,-6.548%,6.364%
Cc1cccc(N2N=C(C(=O)NC(C)Cn3cccn3)CCC2=O)c1 (stereo unspecified),-12.95%,15.87%
CC1CN(C(=O)c2ccn(-c3cccc(Cl)c3)n2)CCO1 (stereo unspecified),0.4106%,27.4%
CCc1nc2n(n1)CC(NCc1cc(OC)c3c(c1)OCO3)CC2 (stereo unspecified),-7.446%,0%
COc1cccc(CN2CCC(c3nccn3C(C)C)CC2)c1,-17.03%,19.81%
O=C(Nc1ccc(F)c(Br)c1)N1CCCC1,-15.43%,15.38%
CC(C)CN1CCC(C(=O)NCCNC(=O)c2ccoc2)CC1,-18.72%,22.37%
O=C1OCCC1N1CCN(c2ccccn2)CC1 (stereo unspecified),-16.18%,20.55%
O=C(NC[C@]12COC[C@H]1CN(Cc1nccs1)C2)c1cscn1,19.91%,12.82%
CC(C)c1nnc2sc(CC3CN(Cc4ccccc4)CCO3)nn12 (stereo unspecified),-0.661%,0%
c1nc(N2CCCCC2Cn2cncn2)c2sccc2n1 (stereo unspecified),-4.929%,8.264%
Cc1nc2n(n1)CCN(S(=O)(=O)c1ccc(OC(F)(F)F)cc1)C2,-24.63%,17.65%
Cc1ccsc1C(=O)N1CCc2ncnc(NC(C)C)c2CC1,-19.82%,19.27%
CC(C)CCCC1CN(C(=O)c2cnc[nH]2)CCO1 (stereo unspecified),-3.437%,6.452%

6 of the entries, repeated:

{"structure": "Cc1ccsc1C(=O)N1CCc2ncnc(NC(C)C)c2CC1", "Pks13 thioesterase": -19.82, "LiHisRS": 19.27}
{"structure": "COc1cccc(-n2nnc(C(=O)N3CCNC(=O)C3)c2C)c1", "Pks13 thioesterase": 0.9227, "LiHisRS": 8.511}
{"structure": "CN(Cc1ccccc1CNC(=O)C1CNC(=O)N1)C1CCCCC1", "stereo": "stereo unspecified", "Pks13 thioesterase": -27.49, "LiHisRS": 7.254}
{"structure": "COc1c(CNC2CCN(c3ncccn3)CC2)c(C)nn1C", "Pks13 thioesterase": -14.1, "LiHisRS": 9.821}
{"structure": "CC(C)c1cc(CNC(=O)Nc2cc(F)cc(N3CCCC3)c2)on1", "Pks13 thioesterase": 33.25, "LiHisRS": 1.6}
{"structure": "O=C(NC[C@]12COC[C@H]1CN(Cc1nccs1)C2)c1cscn1", "Pks13 thioesterase": 19.91, "LiHisRS": 12.82}

Data taken from ChEMBL document CHEMBL3988442, “University of Dundee, Small-Polar-MMV Screening Library” (2021).